Experimental data reported in article PMC9473917.
These are yes or no findings as the source states them, for the method shown. In cells and extracts the contact can be indirect. Binding calls can cover weak binding; strength is not graded here. Tags and fused reporters may be left off the sequences shown.

Sequences of proteins named here, by UniProt entry; tags and fusion partners are left off. A change or cut given only in a name is not applied to a line headed by its entry.
UniProt Q24298: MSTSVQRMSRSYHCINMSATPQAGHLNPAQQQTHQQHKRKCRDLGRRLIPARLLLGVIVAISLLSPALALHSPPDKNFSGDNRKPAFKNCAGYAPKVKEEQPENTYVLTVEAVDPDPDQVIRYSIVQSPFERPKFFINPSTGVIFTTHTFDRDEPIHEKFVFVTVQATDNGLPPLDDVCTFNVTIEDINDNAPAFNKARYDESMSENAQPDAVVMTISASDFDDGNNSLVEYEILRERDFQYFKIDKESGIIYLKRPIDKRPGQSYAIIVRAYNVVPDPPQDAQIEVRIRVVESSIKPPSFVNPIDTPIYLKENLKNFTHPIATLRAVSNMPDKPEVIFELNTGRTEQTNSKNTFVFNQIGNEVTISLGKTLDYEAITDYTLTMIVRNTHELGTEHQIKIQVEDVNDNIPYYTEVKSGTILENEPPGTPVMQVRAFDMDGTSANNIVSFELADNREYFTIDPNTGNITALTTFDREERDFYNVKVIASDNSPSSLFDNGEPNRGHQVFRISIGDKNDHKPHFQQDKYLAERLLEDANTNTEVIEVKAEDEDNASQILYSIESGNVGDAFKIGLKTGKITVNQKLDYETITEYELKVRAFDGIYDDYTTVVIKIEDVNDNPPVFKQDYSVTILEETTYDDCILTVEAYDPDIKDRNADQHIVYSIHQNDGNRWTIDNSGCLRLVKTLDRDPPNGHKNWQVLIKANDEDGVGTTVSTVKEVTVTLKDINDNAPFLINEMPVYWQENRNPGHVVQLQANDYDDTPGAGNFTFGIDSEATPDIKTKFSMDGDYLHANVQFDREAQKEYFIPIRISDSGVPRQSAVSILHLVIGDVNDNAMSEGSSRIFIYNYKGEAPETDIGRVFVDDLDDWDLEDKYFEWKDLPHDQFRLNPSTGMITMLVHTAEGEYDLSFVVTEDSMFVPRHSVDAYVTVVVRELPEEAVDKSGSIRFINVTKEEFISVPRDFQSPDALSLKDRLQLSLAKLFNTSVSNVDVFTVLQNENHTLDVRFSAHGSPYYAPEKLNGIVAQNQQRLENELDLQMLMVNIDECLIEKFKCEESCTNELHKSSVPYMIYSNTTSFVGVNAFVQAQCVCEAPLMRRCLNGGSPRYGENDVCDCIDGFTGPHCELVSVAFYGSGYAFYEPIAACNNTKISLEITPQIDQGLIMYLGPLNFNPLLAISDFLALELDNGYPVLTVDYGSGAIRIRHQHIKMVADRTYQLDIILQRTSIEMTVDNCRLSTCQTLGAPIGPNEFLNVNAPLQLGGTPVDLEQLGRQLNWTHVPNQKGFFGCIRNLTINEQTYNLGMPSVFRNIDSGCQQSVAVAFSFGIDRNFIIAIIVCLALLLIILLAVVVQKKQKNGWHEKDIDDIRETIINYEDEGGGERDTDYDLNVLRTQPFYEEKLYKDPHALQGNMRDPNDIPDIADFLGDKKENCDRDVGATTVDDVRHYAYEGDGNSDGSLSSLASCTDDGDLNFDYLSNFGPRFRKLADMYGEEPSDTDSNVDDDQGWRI

Target: T1, Stat92E-GFP (Drosophila) (UniProt Q24151)
T1 sequence: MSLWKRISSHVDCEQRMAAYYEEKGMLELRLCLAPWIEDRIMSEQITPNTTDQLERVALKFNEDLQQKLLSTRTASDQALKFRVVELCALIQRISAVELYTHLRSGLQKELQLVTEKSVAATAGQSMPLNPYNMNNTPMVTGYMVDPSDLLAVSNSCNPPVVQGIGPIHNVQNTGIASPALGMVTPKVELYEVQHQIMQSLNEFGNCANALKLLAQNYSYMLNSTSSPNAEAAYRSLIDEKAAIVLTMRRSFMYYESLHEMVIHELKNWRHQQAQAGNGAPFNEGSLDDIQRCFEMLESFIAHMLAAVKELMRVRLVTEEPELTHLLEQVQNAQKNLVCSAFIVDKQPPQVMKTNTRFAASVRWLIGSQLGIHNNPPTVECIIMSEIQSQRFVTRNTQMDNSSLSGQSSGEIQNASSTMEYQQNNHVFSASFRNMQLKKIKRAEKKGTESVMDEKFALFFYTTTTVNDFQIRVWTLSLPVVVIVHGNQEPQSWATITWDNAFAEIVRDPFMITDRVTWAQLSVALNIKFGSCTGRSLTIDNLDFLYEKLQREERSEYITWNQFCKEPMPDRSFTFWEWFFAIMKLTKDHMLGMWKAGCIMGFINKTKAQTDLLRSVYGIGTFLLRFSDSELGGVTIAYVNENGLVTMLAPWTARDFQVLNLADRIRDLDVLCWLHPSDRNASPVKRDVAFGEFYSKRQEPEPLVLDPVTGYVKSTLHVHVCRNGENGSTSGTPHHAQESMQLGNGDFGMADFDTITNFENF
Assay: co-IP; ovary extracts from 50 females; proteins chemically cross-linked with DSP prior to cell lysis; GFP magnetic agarose beads (Chromotek, GFP-trap); wash buffer 10 mM Tris-HCl pH7.5, 300 mM NaCl, 0.05% NP40, 0.5 mM EDTA; blots with anti-GFP or anti-E-cadherin

- binding: binds
Substance: E-cadherin, overexpressed (UAS-shg) (from UniProt Q24298)
